Measured values: the supplement of paper PMC12067093, “Discovery and optimisation of a covalent ligand for TRIM25 and its application to targeted protein ubiquitination” (Chemical Science, 2025)
The list shows a part of the results.

Compound: Cc1cc(ccc1-c1ccccc1)C(=O)N1CCCN(CC1)C(=O)CCl [compound 10]
Assay: probe-labelled cysteine peptide fold change vs DMSO (competition) (log2 fold change); higher = less target engagement (more negative = stronger competition)
Details: THP-1, incubation time: 4 h
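Note: competitive profiling in live THP-1 cells: cysteine peptides tagged with an iodoacetamide desthiobiotin (IA-DTB) probe, intensity after compound treatment relative to DMSO-treated cells.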

EIF3M_Q7L2H7_175_LLYEALVDCK (UniProt Q7L2H7)
probe-labelled cysteine peptide fold change (10 µM): 0.0945
probe-labelled cysteine peptide fold change (50 µM): 0.361

EIF4G3_O43432_1471_ALMTAVCK (UniProt O43432)
probe-labelled cysteine peptide fold change (10 µM): 0.296
probe-labelled cysteine peptide fold change (50 µM): 0.185

EIF3D_O15371_438_WTCCALLAGSEYLK (UniProt O15371)
probe-labelled cysteine peptide fold change (10 µM): 0.074
probe-labelled cysteine peptide fold change (50 µM): 0.0166

ELMO2_Q96JJ3_550_LCEGSSFR (UniProt Q96JJ3)
probe-labelled cysteine peptide fold change (10 µM): -0.158
probe-labelled cysteine peptide fold change (50 µM): -0.0439

EPRS_P07814_623_VTWLAETTHALPIPVICVTYEHLITK (UniProt P07814)
probe-labelled cysteine peptide fold change (10 µM): 0.226
probe-labelled cysteine peptide fold change (50 µM): 0.502

ELP1_O95163_23_DIQGPGNPQCFSLR (UniProt O95163)
probe-labelled cysteine peptide fold change (10 µM): 0.145
probe-labelled cysteine peptide fold change (50 µM): -0.213

EIF5_P55010_138_LCTFILK (UniProt P55010)
probe-labelled cysteine peptide fold change (10 µM): -0.108
probe-labelled cysteine peptide fold change (50 µM): -0.423

EIF4B_P23588_457_SLENETLNKEEDCHSPTSKPPKPDQPLK (UniProt P23588)
probe-labelled cysteine peptide fold change (10 µM): 0.0656
probe-labelled cysteine peptide fold change (50 µM): -0.575

EMC8_O43402_24_YPHCAVNGLLVAEK (UniProt O43402)
probe-labelled cysteine peptide fold change (10 µM): 0.0514
probe-labelled cysteine peptide fold change (50 µM): 0.0611

ELP2_Q6IA86_14_VAPVLETSHVFCCPNR (UniProt Q6IA86)
probe-labelled cysteine peptide fold change (10 µM): -0.0763
probe-labelled cysteine peptide fold change (50 µM): -0.184

EML4_Q9HC35_82_AVIPMSCITNGSGANR (UniProt Q9HC35)
probe-labelled cysteine peptide fold change (10 µM): -0.0598
probe-labelled cysteine peptide fold change (50 µM): -0.167

EIF4A2_Q14240_132+135_VILALGDYMGATCHACIGGTNVR (UniProt Q14240)
probe-labelled cysteine peptide fold change (10 µM): 0.3
probe-labelled cysteine peptide fold change (50 µM): 0.0623

EML4_Q9HC35_820_VHLFQYPCSK (UniProt Q9HC35)
probe-labelled cysteine peptide fold change (10 µM): -0.0419
probe-labelled cysteine peptide fold change (50 µM): -0.0122

EIF3E_P60228_345_LFIFETFCR (UniProt P60228)
probe-labelled cysteine peptide fold change (10 µM): 0.417
probe-labelled cysteine peptide fold change (50 µM): 0.527

EPRS_P07814_660_HEELMLGDPCLK (UniProt P07814)
probe-labelled cysteine peptide fold change (10 µM): -0.0678
probe-labelled cysteine peptide fold change (50 µM): -0.063

EIF4G2_P78344_97_LCLELLNVGVESK (UniProt P78344)
probe-labelled cysteine peptide fold change (10 µM): -0.41
probe-labelled cysteine peptide fold change (50 µM): 0.409

EMC4_Q5J8M3_69_CWDIALGPLK (UniProt Q5J8M3)
probe-labelled cysteine peptide fold change (10 µM): 0.0223
probe-labelled cysteine peptide fold change (50 µM): 0.385

ELOB_Q15370_60_TLGECGFTSQTARPQAPATVGLAFR (UniProt Q15370)
probe-labelled cysteine peptide fold change (10 µM): -0.1
probe-labelled cysteine peptide fold change (50 µM): -0.0923

EIF3J_O75822_188_DVCISLEIDDLKK (UniProt O75822)
probe-labelled cysteine peptide fold change (10 µM): 0.183
probe-labelled cysteine peptide fold change (50 µM): 0.15

ERBIN_Q96RT1_68_QLFNCQSLHK (UniProt Q96RT1)
probe-labelled cysteine peptide fold change (10 µM): 0.0454
probe-labelled cysteine peptide fold change (50 µM): -0.191

EIF4A3_P38919_140_GLLALGDYMNVQCHACIGGTNVGEDIRK (UniProt P38919)
probe-labelled cysteine peptide fold change (10 µM): 0.22
probe-labelled cysteine peptide fold change (50 µM): 0.0635

ENOX2_Q16206_216_DDLYEWECK (UniProt Q16206)
probe-labelled cysteine peptide fold change (10 µM): 0.0581
probe-labelled cysteine peptide fold change (50 µM): -0.237

EP300_Q09472_382_NVLNHMTHCQSGK (UniProt Q09472)
probe-labelled cysteine peptide fold change (10 µM): 0.0586
probe-labelled cysteine peptide fold change (50 µM): -0.117

EIF4A1_P60842_131+134_VVMALGDYMGASCHACIGGTNVR (UniProt P60842)
probe-labelled cysteine peptide fold change (10 µM): 0.402
probe-labelled cysteine peptide fold change (50 µM): -0.161

ENG_P17813_207_GCHLEGVAGHK (UniProt P17813)
probe-labelled cysteine peptide fold change (10 µM): 0.0518
probe-labelled cysteine peptide fold change (50 µM): 0.162

EPC1_Q9H2F5_135_KMDICPLQFEEMIDRLEK (UniProt Q9H2F5)
probe-labelled cysteine peptide fold change (10 µM): 0.203
probe-labelled cysteine peptide fold change (50 µM): -0.458

ELP1_O95163_744_EAFECMR (UniProt O95163)
probe-labelled cysteine peptide fold change (10 µM): -0.575
probe-labelled cysteine peptide fold change (50 µM): 0.271

EIF3F_O00303_134_HSVEVTNCFSVPHNESEDEVAVDMEFAK (UniProt O00303)
probe-labelled cysteine peptide fold change (10 µM): -0.124
probe-labelled cysteine peptide fold change (50 µM): 0.132

EIF4G3_O43432_461_TCLSEDAK (UniProt O43432)
probe-labelled cysteine peptide fold change (10 µM): -0.21
probe-labelled cysteine peptide fold change (50 µM): -0.16

ELMOD2_Q8IZ81_285_GLLLDCNVALTLK (UniProt Q8IZ81)
probe-labelled cysteine peptide fold change (10 µM): 0.29
probe-labelled cysteine peptide fold change (50 µM): 0.52

EML3_Q32P44_604_GDLAQGFSPVIQGHTDELWGLCTHPSQNR (UniProt Q32P44)
probe-labelled cysteine peptide fold change (10 µM): 0.0915
probe-labelled cysteine peptide fold change (50 µM): -0.0284

EIF5B_O60841_1158_KGQEVCVK (UniProt O60841)
probe-labelled cysteine peptide fold change (10 µM): 0.0629
probe-labelled cysteine peptide fold change (50 µM): 0.0487

EPRS_P07814_337_GSQFGQSCCLR (UniProt P07814)
probe-labelled cysteine peptide fold change (10 µM): 0.0401
probe-labelled cysteine peptide fold change (50 µM): -0.0341

ELL_P55199_595_CEYLHSK (UniProt P55199)
probe-labelled cysteine peptide fold change (10 µM): 0.21
probe-labelled cysteine peptide fold change (50 µM): 0.12

EMG1_Q92979_171_NPVSDHFPVGCMK (UniProt Q92979)
probe-labelled cysteine peptide fold change (10 µM): -0.0343
probe-labelled cysteine peptide fold change (50 µM): -0.0523

EMC8_O43402_161_CRDPHHDYCEDWPEAQR (UniProt O43402)
probe-labelled cysteine peptide fold change (10 µM): 0.564
probe-labelled cysteine peptide fold change (50 µM): 0.211
